# Data published in patent US6653088.
# Sequences of proteins named here, by UniProt entry; tags and fusion partners are left off. A change or cut given only in a name is not applied to a line headed by its entry.
# UniProt P05067: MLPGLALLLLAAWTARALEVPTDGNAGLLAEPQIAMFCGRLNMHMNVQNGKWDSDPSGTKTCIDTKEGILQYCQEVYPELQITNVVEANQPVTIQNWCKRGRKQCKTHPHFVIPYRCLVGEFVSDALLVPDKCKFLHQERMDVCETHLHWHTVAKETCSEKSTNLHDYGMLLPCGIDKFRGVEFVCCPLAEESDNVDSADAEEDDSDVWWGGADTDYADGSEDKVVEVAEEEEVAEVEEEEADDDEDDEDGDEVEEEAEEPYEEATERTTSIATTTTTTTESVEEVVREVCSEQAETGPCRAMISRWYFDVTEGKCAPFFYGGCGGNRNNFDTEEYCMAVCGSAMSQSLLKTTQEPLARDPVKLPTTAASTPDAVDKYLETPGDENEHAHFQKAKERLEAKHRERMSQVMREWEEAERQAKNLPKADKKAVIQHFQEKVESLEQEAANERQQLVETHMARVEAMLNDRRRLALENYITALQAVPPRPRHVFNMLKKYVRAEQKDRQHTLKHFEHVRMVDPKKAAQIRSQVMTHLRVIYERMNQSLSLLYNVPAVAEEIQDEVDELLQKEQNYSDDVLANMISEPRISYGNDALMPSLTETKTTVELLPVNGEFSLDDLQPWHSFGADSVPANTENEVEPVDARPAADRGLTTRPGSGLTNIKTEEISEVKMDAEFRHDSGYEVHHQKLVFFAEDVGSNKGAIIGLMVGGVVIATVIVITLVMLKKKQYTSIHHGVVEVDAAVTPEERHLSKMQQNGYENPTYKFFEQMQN
# Results are given in words; binding and its absence hold for the method and conditions named. For some of these results: Binding seen in cells or lysates may run through a third protein. Some binding calls cover weakened binding; strength is not graded here.
# Experiments:
# [1] = molecular target: Aβ peptide produced by COS cells expressing SPA4CT (human); assay: co-immunoprecipitation (legend of FIG. 7)
# [2] = molecular target: α-sAPP (human) (UniProt P05067); assay: co-immunoprecipitation (legend of FIG. 15)
# [3] = molecular target: β-sAPP (human) (UniProt P05067); assay: co-immunoprecipitation (legend of FIG. 15)
# [4] = molecular target: α-sAPP (human) (UniProt P05067); assay: co-immunoprecipitation from cotransfected cells
# [5] = molecular target: β-sAPP (human) (UniProt P05067); assay: co-immunoprecipitation from cotransfected cells
# [6] = molecular target: Aβ peptide produced by COS cells expressing SPA4CT (human); assay: immunoprecipitation of extracellular medium of cotransfected COS cells with anti-PS2 antibody, Aβ detected with W02; SDS-stable complex at approximately 40 kDa
# [7] = molecular target: SPA4CT (human) (UniProt P05067); assay: co-immunoprecipitation (legend of FIG. 4A)
# [8] = molecular target: C100 (human) (UniProt P05067); assay: co-immunoprecipitation (legend of FIG. 4B)
# [9] = molecular target: C100 (human) (UniProt P05067); assay: co-immunoprecipitation from cotransfected COS cells, detection with αCT43
# [10] = molecular target: SPA4CT (human) (UniProt P05067); assay: as above
# [11] = molecular target: precursor of the β-amyloid peptide (APP), isoform 695 (human) (UniProt P05067); assay: co-immunoprecipitation from COS cell lysate, anti-PS2 N-term antibody, anti-APP immunoblot
# [12] = molecular target: precursor of the β-amyloid peptide (APP), isoform 695 (human) (UniProt P05067); assay: co-immunoprecipitation from COS cell lysate, anti-PS2 N-term antibody 95041, anti-APP immunoblot
binding [1],binding [2],binding [3],binding [4],binding [5],binding [6],binding [7],binding [8],binding [9],binding [10],binding [11],binding [12],Substance
binds,binds,binds,binds,binds,binds,,,,,,,"SecPS2Nt (N-terminal hydrophilic end of PS2 preceded by the Igk signal peptide, secreted form) (from UniProt P49810 1-87)"
,binds,binds,binds,binds,,binds,binds,binds,binds,binds,binds,presenilin 2 (PS2) (from UniProt P49810 1-448)
